The record followed here is article PMC7819943, “Rice protein-binding microarrays: a tool to detect cis-acting elements near promoter regions in rice”.

The other results are listed elsewhere or left out.

The experiment addresses T1, OsSMF1 (Oryza sativa, UniProt Q6ZLB0 1-436).
T1 sequence: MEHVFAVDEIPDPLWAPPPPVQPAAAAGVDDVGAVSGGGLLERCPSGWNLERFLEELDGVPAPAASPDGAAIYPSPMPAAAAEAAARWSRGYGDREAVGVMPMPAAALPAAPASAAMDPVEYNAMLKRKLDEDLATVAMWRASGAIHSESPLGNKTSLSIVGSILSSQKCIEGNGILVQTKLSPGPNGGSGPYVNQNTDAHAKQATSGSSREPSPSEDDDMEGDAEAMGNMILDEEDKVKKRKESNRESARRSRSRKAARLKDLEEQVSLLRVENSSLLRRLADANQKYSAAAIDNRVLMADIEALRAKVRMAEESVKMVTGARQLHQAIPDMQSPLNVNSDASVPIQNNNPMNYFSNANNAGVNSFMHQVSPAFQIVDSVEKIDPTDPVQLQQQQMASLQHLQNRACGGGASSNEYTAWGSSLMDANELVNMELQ
Kind of experiment: protein-binding microarray (RPBM); PBS, 2% BSA, 51.3 ng/ul salmon testes DNA, 50 uM zinc acetate, 200 nM TF, 25 C, 1 h; high values mean tight binding. Conditions: protein: recombinant; tags: N-terminal polyhistidine and DsRed monomer fusion (pET32a); chain copies: 2; label: CyDye5-dUTP incorporated in the synthesized complementary strand; 3' TTTTT single-stranded linker to array surface; dsDNA, one strand shown. A digest of the protocol:
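Binding signal here means per-feature fluorescence intensity in arbitrary units. The values were read on an Axon 4000B scanner after a custom Agilent array, double-stranded by primer extension with Cy5-dUTP, was incubated with 200 nM protein at 25 °C for 1 h in PBS with 2% BSA, salmon testes DNA and 50 µM zinc acetate, then washed. The proteins were transcription factors with an N-terminal polyhistidine tag and DsRed, expressed in E. coli BL21-CodonPlus and purified on Ni–NTA.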
Turning to “GGGAGTAGGGAGATCGATCCACCTCCGCCATGCTCCTTCCCGGAGTCACCTAGTGCAG”, the binding signal is 3260 fluorescence intensity (a.u.).
Regarding “TTAGATATATTGACACATATTTAAAGTATTAAACGTAGTCCGGAGTCACCTAGTGCAG”, the binding signal was 3620 fluorescence intensity (a.u.).
Regarding “GTCGGACAACTCCGAGAGCTCCAACGCGGCGACCAACTCGCGGAGTCACCTAGTGCAG”, the binding signal was 3230 fluorescence intensity (a.u.).
In the case of “TTTTCCGTGCTCTTCCCGTTTCCTTCGACACGTCGAGTGGCGGAGTCACCTAGTGCAG”, the binding signal is 4420 fluorescence intensity (a.u.).
For the sequence “TATACCCACGTGAGGACGTAAGGTCACTATCTTTCCACCTCGGAGTCACCTAGTGCAG”, the binding signal is 3770 fluorescence intensity (a.u.).
For the sequence “TATTCTAATGCCACTTAAACGCCACATCAACGCCACGTAGCGGAGTCACCTAGTGCAG”, the binding signal is 14000 fluorescence intensity (a.u.).
For “ACTCCAGCACCTTCTCGTCCATGATCCGCGGCGGCCCCAGCGGAGTCACCTAGTGCAG”, the binding signal is 3210 fluorescence intensity (a.u.).
For the sequence “GGTGGGTGCATCCAATGTCGATGTGGTTAGCGGCGGTGAACGGAGTCACCTAGTGCAG”, the binding signal was 3490 fluorescence intensity (a.u.).
As for “TTGCATGTTGTTCTTCGTCAAACATCATCTGCATATAATGCGGAGTCACCTAGTGCAG”, the figure is 3190 fluorescence intensity (a.u.); as for “TACTACTAATAATCCTTTTCGGTGAAGGTGGTGACGTCGTCGGAGTCACCTAGTGCAG”, 4660 fluorescence intensity (a.u.).
Turning to “GGTTGTTCTAACAAATTGTTTATAAAACAATTTGATTTTGCGGAGTCACCTAGTGCAG”, the binding signal was 3570 fluorescence intensity (a.u.).
On to “TAGGATACTGACTCATGTTGCTGCTGCTCTTTTCGTCTATCGGAGTCACCTAGTGCAG”, for which the binding signal was 8360 fluorescence intensity (a.u.).
As to “AATTGAAGAAACGATGACTACGTACTTAATTCCTCGTCTACGGAGTCACCTAGTGCAG”, the binding signal is 4340 fluorescence intensity (a.u.).
For “GGCACATACGCGTTCGTACGTGTCGGCACATTTCACACCACGGAGTCACCTAGTGCAG” the value was 3980 fluorescence intensity (a.u.); for “AATAATTTTAGCTGTGTTGTCTTGGCAGGCGCCGGCGTGTCGGAGTCACCTAGTGCAG”, 3620 fluorescence intensity (a.u.).
As for “GCACGGCAGCTGACACGGGAACTCGCCGCGATCCCCGCCGCGGAGTCACCTAGTGCAG”, the figure is 3260 fluorescence intensity (a.u.).
Turning to “CGGTCCATTCATCAACCCACGTCATCGCCCAATCCGCAGCCGGAGTCACCTAGTGCAG”, the binding signal is 25300 fluorescence intensity (a.u.).
“AGCATTCACCCAGCATTAGCCGGTTTCACAACAGCATCATCGGAGTCACCTAGTGCAG”: the binding signal was 4090 fluorescence intensity (a.u.).
Take “GCCTTAGTTCTATAGTGGGCCAAAATATATCCGGCGCTAGCGGAGTCACCTAGTGCAG”: the binding signal was 3410 fluorescence intensity (a.u.).
As for “TCAAAATTTGATAGCTGCTTATAAGCTGAAAGACAAACGACGGAGTCACCTAGTGCAG”, the binding signal is 21900 fluorescence intensity (a.u.).
Regarding “GTGTGTAATTGTTGCGTACGTCAATGTGGCAGATGAGAGGCGGAGTCACCTAGTGCAG”, the binding signal was 6610 fluorescence intensity (a.u.).
With “ATATACGGAGTATATATACACCACCTCACCACCAATCAACCGGAGTCACCTAGTGCAG”, the binding signal is 3590 fluorescence intensity (a.u.).
For “ACACATGCCCAGATAGTTTTCTTTGTCATCTCATTCTGCACGGAGTCACCTAGTGCAG” the value was 3820 fluorescence intensity (a.u.); for “TCTGTTTGAATTATTGAATTCCATGTGGAAGTGCACAGAGCGGAGTCACCTAGTGCAG”, 3150 fluorescence intensity (a.u.).
As for “AGGTCGTGACACGCCACGTCACGCTTGGGACCACCCGTCGCGGAGTCACCTAGTGCAG”, the figure is 24200 fluorescence intensity (a.u.).
Take “AATGAGTTGAAGGAAGCTATCTCCGCTGTACGTGGCAGTCCGGAGTCACCTAGTGCAG”: the binding signal is 9380 fluorescence intensity (a.u.).
On to “AGAAACACCTGCTCCTTGTCACGTCTATCCACCAATTAATCGGAGTCACCTAGTGCAG”, for which the binding signal is 6020 fluorescence intensity (a.u.).
With “CCAGTCGAATCACAACCTCCCTCGCTCCCTCTGACCCTCTCGGAGTCACCTAGTGCAG”, the binding signal is 7150 fluorescence intensity (a.u.).
Consider “ATGGAGGTGTTGCCTTGCTGACTCTCTTTCCCTTTGGGTGCGGAGTCACCTAGTGCAG”, for which the binding signal was 4870 fluorescence intensity (a.u.).
Turning to “GTAGCTGTTAAGTTCCATCTCGTCAGCAGCTGCCTGCAGACGGAGTCACCTAGTGCAG”, the binding signal is 3210 fluorescence intensity (a.u.).
Regarding “TGGAGATCGAAACCCTCTGTGAGTGACACGTGGACCAGCACGGAGTCACCTAGTGCAG”, the binding signal was 15500 fluorescence intensity (a.u.).
On to “TCGTCGCCGGCGGGATGGCCGGTCGTCCGTCAGCATCCTCCGGAGTCACCTAGTGCAG”, for which the binding signal was 4180 fluorescence intensity (a.u.).
As to “CCTTTCTCCCGAAAATACGGGCGCACACGTACTCCGCATCCGGAGTCACCTAGTGCAG”, the binding signal is 3780 fluorescence intensity (a.u.).
In the case of “CCGGGTTAGCTTTTGGTTGCACGAGATGATTACGAGTGTGCGGAGTCACCTAGTGCAG”, the binding signal was 20000 fluorescence intensity (a.u.).
Regarding “AAGCAAGTAAATAAATGCCACTCCAAAGAATCATAGTTGTCGGAGTCACCTAGTGCAG”, the binding signal was 3680 fluorescence intensity (a.u.).
As for “TAGCCAACGTGCATTCCGGCCTCGTGCTTCCCCTTACTCGCGGAGTCACCTAGTGCAG”, the figure is 4290 fluorescence intensity (a.u.); as for “ATTCTTCTCCAGGGGACTAACCCATCCCACTCACCTCTAACGGAGTCACCTAGTGCAG”, 3370 fluorescence intensity (a.u.).
As for “AACTAATTCGCCCTTCCTCCTCCACGCCCTCTCGCTACCACGGAGTCACCTAGTGCAG”, the binding signal is 3400 fluorescence intensity (a.u.).
“ATCTTAAGCTCCTCATTTCATCTATGATTGGCTTGCTTTACGGAGTCACCTAGTGCAG”: the binding signal was 3180 fluorescence intensity (a.u.).
Take “AAGTGCCTATGTCATCTCCAAGCATATAAGCAATACGTGGCGGAGTCACCTAGTGCAG”: the binding signal is 9520 fluorescence intensity (a.u.).
As to “TGGTTGTAACTAACACGTATAGTAACGCCTGCTTATCTCGCGGAGTCACCTAGTGCAG”, the binding signal was 3370 fluorescence intensity (a.u.).
As for “GGTGACAATATATCATATTATTAATGATCACATGTGTTGGCGGAGTCACCTAGTGCAG”, the figure is 4560 fluorescence intensity (a.u.).
